# The other results are listed elsewhere or left out. The main result of the screen is listed elsewhere. These columns were measured beside it and carry no call. Compounds called inactive in the main read-out are mostly missing here. Potencies come from curve fits of mixed quality, noted in brackets.
# Assay: qHTS Assay to Find Inhibitors of Chronic Active B-Cell Receptor Signaling
# Conditions: ABC-DLBCL IkBa-CBG/CBR reporter, luminescence ratio (green luciferase fused to IkBa over red control in TMD8 lymphoma cells), 4 h; measured here: CBR red luminescence, cell number
# Procedure, shortened: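 Cell line TMD8 (human ABC DLBCL), stably expressing tet-inducible CBG68-IkBa fusion and CBR; IMDM/0.5% FBS; cpd up to 46 uM; dox induction, 4 h, 37C/5% CO2; dual luminescence; green/red ratio; MG132 control.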
row,Compound,AC50
1,O=C(c1cnc2nc3ccccc3n2c1)c1cc(F)ccc1O,"4.47 µM [falling, partial curve, poor fit]"
2,CN(C)CCNC(=O)c1onc(CSc2ccc(F)c(F)c2)c1C(=O)NCCN(C)C,"35.5 µM [falling, single point]"
3,C=CCSc1ncnc2sc(C)c(C)c12,"16.4 µM [rising, partial curve]"
4,CNC(=O)N(C1=NCC(C)S1)c1ccc(F)cc1F (stereo not drawn),"2.06 µM [rising, partial curve, poor fit]"
5,COc1cc(/C=C(\C#N)C(=O)c2ccc(O)c(O)c2)cc(I)c1O,"29.1 µM [falling, single point]"
6,COc1ccc(C(=O)NCCNc2ccc([N+](=O)[O-])cc2)cc1OC,"6.31 µM [rising, partial curve, poor fit]"
7,CC(=O)Nc1ccc(N/C=C/C(=O)C(C)(C)C)cc1,"7.31 µM [rising, partial curve, poor fit]"
8,CNc1ccccc1C(=O)OCC(=O)c1ccc(F)cc1,"12.6 µM [falling, partial curve]"
9,CC(=O)Nc1ccc(C2=NN(C)C(=NCc3ccccc3)SC2)cc1,"20 µM [rising, partial curve, poor fit]"
10,CCc1ccccc1N1C(=O)CC(N2CCc3ccccc32)C1=O (stereo not drawn),"7.94 µM [falling, partial curve]"
11,COc1cccc(NC(=O)CC2Oc3ccccc3NC2=O)c1 (stereo not drawn),"28.2 µM [falling, single point]"
12,COc1cccc(NC(=O)c2oc3ccc(S(=O)(=O)N4CCOCC4)cc3c2C)c1,"11.2 µM [falling, partial curve, poor fit]"
13,CN1CCN(c2cc(N3CCN(C(=O)c4ccco4)CC3)c3c4c(onc24)-c2ccccc2C3=O)CC1,"25.1 µM [falling, single point]"
14,CC1CCCCN1S(=O)(=O)c1ccc2[nH]c(=O)cc(C(=O)NCCc3ccc(Cl)cc3)c2c1 (stereo not drawn),"0.631 µM [rising, full curve, poor fit]"
15,CCN1CCc2nc(SCC(=O)Nc3ccc(OC)cc3)c(C#N)cc2C1,"14.1 µM [rising, single point]"
16,CCn1ccnc1CN(C)Cc1cn(-c2cc(C)ccc2C)nc1-c1ccccc1,"15.8 µM [falling, single point]"
17,O=C(c1ccc(Cl)cc1)N1CCCC(C(=O)N2CCCCC2)C1 (stereo not drawn),"1 µM [falling, partial curve, poor fit]"
18,O=C(NNc1nc(-c2ccccc2)cs1)c1ccccc1,"35.5 µM [falling, single point]"

# Quoted at random: 2 records from the list
row,Compound,AC50
1,O=C(c1cnc2nc3ccccc3n2c1)c1cc(F)ccc1O,"4.47 µM [falling, partial curve, poor fit]"
14,CC1CCCCN1S(=O)(=O)c1ccc2[nH]c(=O)cc(C(=O)NCCc3ccc(Cl)cc3)c2c1 (stereo not drawn),"0.631 µM [rising, full curve, poor fit]"

# From PubChem BioAssay AID493014 (National Center for Advancing Translational Sciences (NCATS), 2011)
